Values from PubChem BioAssay AID504804 (Drosophila RNAi Screening Center, 2011).
Aim: 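Knock-downs shielding fly cells from apoptosis caused by DNA damage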 (primary screen). Cells: Drosophila Kc cells. Reagents: long dsRNA against Drosophila genes, 0.5 µg dsRNA per well. Duration: 96 h (48 h knock-down, then 48 h drug). Treatment: doxorubicin 5 µg/ml for 48 h, added 48 h after dsRNA. Detection: 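Viability measured as cellular ATP by luminescence after 48 h knock-down then 48 h doxorubicin at 5 µg/ml; unnormalised plate counts for each replicate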. Reading the numbers: raw ATP luminescence: higher = more viable cells, protection from doxorubicin. Active means: 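z-score of 2 or more over plate mean in both duplicates, retained only when retests and separate dsRNAs confirm the protection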.
The screen tested about 19,000 reagents; shown is an unselected part of those with a known target gene and a result. Over the whole deposit, 47 (0.25%) got an active call. 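Signals are raw, not normalised; exact z-scores behind calls not deposited; actives needed confirmation, so some wells reaching 2 SD are inactive.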 Names joined by + are all predicted targets of the reagent.

predicted target | amplicon | raw ATP luminescence, replicate 1 | raw ATP luminescence, replicate 2 | call
CG5447 (GeneID 43192) | DRSC15801 | 66640 | 56000 | inactive
CG7692 (GeneID 39934) | DRSC10902 | 56237 | 45580 | inactive
CG7878 (GeneID 40959) | DRSC16330 | 68757 | 60287 | inactive
Wwox (GeneID 34090) | DRSC03030 | 1.27e5 | 83967 | inactive
CG1598 (GeneID 35690) | DRSC06598 | 44313 | 75743 | inactive
Cyp4e2 (GeneID 35822) | DRSC07371 | 75907 | 52817 | inactive
SF1 (GeneID 43912) | DRSC16844 | 62310 | 59170 | inactive
CG15308 (GeneID 50415) | DRSC17995 | 3.73e5 | 3.66e5 | inactive
pb (GeneID 40826) | DRSC12409 | 75997 | 44707 | inactive
pb (GeneID 40826) | DRSC12629 | 48377 | 41303 | inactive
Cyp4ad1 (GeneID 35821) | DRSC07369 | 88500 | 71450 | inactive
CG5254 (GeneID 31020) | DRSC18611 | 59330 | 71070 | inactive
CG5790 (GeneID 35095) | DRSC02896 | 1.06e5 | 81317 | inactive
Spn42De (GeneID 35602) | DRSC05011 | 52773 | 72357 | inactive
Nepl8 (GeneID 34983) | DRSC02759 | 38420 | 75237 | inactive
CG7458 (GeneID 40441) | DRSC11829 | 72890 | 55197 | inactive
CG4960 (GeneID 43115) | DRSC15684 | 56230 | 70290 | inactive
CG7745 (GeneID 36210) | DRSC07037 | 44877 | 34400 | inactive
enok (GeneID 37859) | DRSC04096 | 51847 | 64600 | inactive
mei-41 (GeneID 32608) | DRSC20350 | 2.33e5 | 2.52e5 | inactive
omd (GeneID 41674) | DRSC16507 | 34213 | 31170 | inactive
YL-1 (GeneID 34516) | DRSC02765 | 44180 | 1.03e5 | inactive
fos28F (retired record) (GeneID 34113) | DRSC03391 | 39327 | 64067 | inactive
CG34106 (GeneID 4379891) | DRSC01578 | 3.32e5 | 2.68e5 | inactive
Gli (GeneID 34927) | DRSC03332 | 61443 | 74420 | inactive
CG41520 (GeneID 5740294) | DRSC21102 | 1.85e5 | 2.00e5 | inactive
CG41520 (GeneID 5740294) | DRSC21103 | 3.07e5 | 2.71e5 | inactive
CG4853 (GeneID 36974) | DRSC06898 | 69307 | 69533 | inactive
CG13114 (GeneID 34272) | DRSC02212 | 42200 | 83977 | inactive
Nadk1b (GeneID 36507) | DRSC05432 | 88163 | 84817 | inactive
Nadk1b (GeneID 36507) | DRSC06964 | 57773 | 71777 | inactive
CG15020 (GeneID 38544) | DRSC08474 | 60873 | 78523 | inactive
CG32563 (GeneID 32706) | DRSC19934 | 3.89e5 | 3.32e5 | inactive
CG32333 (GeneID 38142) | DRSC08627 | 64710 | 80353 | inactive
CG13599 (GeneID 42829) | DRSC14602 | 64630 | 65260 | inactive
CG18493 (GeneID 42319) | DRSC15334 | 59020 | 68600 | inactive
Pka-C3 (GeneID 39733) | DRSC09402 | 82050 | 77453 | inactive
Pka-C3 (GeneID 39733) | DRSC11254 | 49280 | 42433 | inactive
Su(Tpl) (GeneID 40171) | DRSC10954 | 22883 | 24067 | inactive
Ube3a (GeneID 39266) | DRSC10600 | 36370 | 43900 | inactive
cact (GeneID 34969) | DRSC03501 | 72853 | 48160 | inactive
Alp6 (GeneID 35981) | DRSC06710 | 52443 | 60933 | inactive
CG30060 (GeneID 246426) | DRSC05419 | 79373 | 89427 | inactive
CG3124 (GeneID 37688) | DRSC04339 | 17863 | 27907 | inactive
tbc (GeneID 318059) | DRSC20540 | 2.49e5 | 2.70e5 | inactive
dao (GeneID 34891) | DRSC01960 | 73287 | 73897 | inactive
CG6055 (GeneID 34027) | DRSC02923 | 23933 | 30490 | inactive
PH4alphaSG1 (GeneID 326112) | DRSC15080 | 56420 | 41850 | inactive
CG13722 (GeneID 38555) | DRSC08331 | 75960 | 83960 | inactive
CG5928 (GeneID 31539) | DRSC18391 | 55020 | 45850 | inactive
CG14683 (GeneID 41278) | DRSC17035 | 34903 | 35227 | inactive
CG3568 (GeneID 31383) | DRSC18312 | 40630 | 43610 | inactive
Jhbp13 (GeneID 34729) | DRSC02913 | 66030 | 81450 | inactive
Fkbp39 (GeneID 41860) | DRSC16667 | 38130 | 21923 | inactive
SKIP (GeneID 42601) | DRSC14713 | 69920 | 99850 | inactive
SKIP (GeneID 42601) | DRSC14714 | 48820 | 65710 | inactive
SKIP (GeneID 42601) | DRSC15864 | 60890 | 53730 | inactive
SKIP (GeneID 42601) | DRSC16195 | 61897 | 45070 | inactive
SKIP (GeneID 42601) | DRSC16196 | 58140 | 73730 | inactive
RPA2 (GeneID 35364) | DRSC03184 | 71503 | 67350 | inactive
Actn3 (GeneID 44964) | DRSC14106 | 76960 | 84220 | inactive
betaTub65B (GeneID 117406) | DRSC11393 | 74383 | 79560 | inactive
CG10660 (GeneID 39422) | DRSC09769 | 42060 | 38603 | inactive
ArfGAP1 (GeneID 39417) | DRSC11173 | 61657 | 50703 | inactive
CG15429 (GeneID 33637) | DRSC00444 | 20083 | 21213 | inactive
CG18418 (GeneID 38572) | DRSC08535 | 31883 | 25727 | inactive
CG32266 (GeneID 317945) | DRSC08062 | 1.57e5 | 1.69e5 | inactive
Ars2 (GeneID 35539) | DRSC04893 | 60040 | 59797 | inactive
CG18635 (GeneID 37031) | DRSC06780 | 1.76e5 | 2.04e5 | inactive
CSN7 (GeneID 35816) | DRSC06807 | 71047 | 49453 | inactive
CSN7 (GeneID 35816) | DRSC06808 | 76937 | 79737 | inactive
CG9107 (GeneID 33843) | DRSC03138 | 1.04e5 | 87363 | inactive
slam (GeneID 33890) | DRSC03240 | 15933 | 17677 | inactive
CG10164 (GeneID 42777) | DRSC14197 | 2.26e5 | 2.05e5 | inactive
CG42557 + CG42558 | DRSC13963 | 2.12e5 | 2.25e5 | inactive
CG31093 (GeneID 43116) | DRSC15689 | 71540 | 61900 | inactive
CG12121 (GeneID 31866) | DRSC17816 | 3.40e5 | 3.58e5 | inactive
slf (GeneID 33678) | DRSC00583 | 34360 | 38780 | inactive
CG10834 (GeneID 35438) | DRSC03693 | 49283 | 44697 | inactive
CG8001 (GeneID 38224) | DRSC08611 | 54123 | 52227 | inactive
Ir60e (GeneID 37917) | DRSC04227 | 46403 | 61813 | inactive
CG3588 (GeneID 31278) | DRSC18473 | 57840 | 42030 | inactive
CG2059 (GeneID 31663) | DRSC18203 | 41440 | 51090 | inactive
beg (GeneID 39910) | DRSC10923 | 24197 | 23157 | inactive

A few values from the list:
Cyp4e2 (GeneID 35822) [DRSC07371], raw ATP luminescence, replicate 2 → 52817
Entry of CG3124 (GeneID 37688) [DRSC04339] in “raw ATP luminescence, replicate 1”: 17863
Nadk1b (GeneID 36507) [DRSC05432], raw ATP luminescence, replicate 2 → 84817
CG6055 (GeneID 34027) [DRSC02923], raw ATP luminescence, replicate 2: 30490
CG14683 (GeneID 41278) [DRSC17035], raw ATP luminescence, replicate 1: 34903
CG32563 (GeneID 32706) [DRSC19934], raw ATP luminescence, replicate 2: 3.32e5
